# These are yes or no findings as the source states them, for the method shown. In cells and extracts the contact can be indirect. Here binding means that the protein was enriched with, or labelled near, the bait; the list need not be complete.
# The chains behind the UniProt entries cited, without tags or fusion partners.
# UniProt Q00341: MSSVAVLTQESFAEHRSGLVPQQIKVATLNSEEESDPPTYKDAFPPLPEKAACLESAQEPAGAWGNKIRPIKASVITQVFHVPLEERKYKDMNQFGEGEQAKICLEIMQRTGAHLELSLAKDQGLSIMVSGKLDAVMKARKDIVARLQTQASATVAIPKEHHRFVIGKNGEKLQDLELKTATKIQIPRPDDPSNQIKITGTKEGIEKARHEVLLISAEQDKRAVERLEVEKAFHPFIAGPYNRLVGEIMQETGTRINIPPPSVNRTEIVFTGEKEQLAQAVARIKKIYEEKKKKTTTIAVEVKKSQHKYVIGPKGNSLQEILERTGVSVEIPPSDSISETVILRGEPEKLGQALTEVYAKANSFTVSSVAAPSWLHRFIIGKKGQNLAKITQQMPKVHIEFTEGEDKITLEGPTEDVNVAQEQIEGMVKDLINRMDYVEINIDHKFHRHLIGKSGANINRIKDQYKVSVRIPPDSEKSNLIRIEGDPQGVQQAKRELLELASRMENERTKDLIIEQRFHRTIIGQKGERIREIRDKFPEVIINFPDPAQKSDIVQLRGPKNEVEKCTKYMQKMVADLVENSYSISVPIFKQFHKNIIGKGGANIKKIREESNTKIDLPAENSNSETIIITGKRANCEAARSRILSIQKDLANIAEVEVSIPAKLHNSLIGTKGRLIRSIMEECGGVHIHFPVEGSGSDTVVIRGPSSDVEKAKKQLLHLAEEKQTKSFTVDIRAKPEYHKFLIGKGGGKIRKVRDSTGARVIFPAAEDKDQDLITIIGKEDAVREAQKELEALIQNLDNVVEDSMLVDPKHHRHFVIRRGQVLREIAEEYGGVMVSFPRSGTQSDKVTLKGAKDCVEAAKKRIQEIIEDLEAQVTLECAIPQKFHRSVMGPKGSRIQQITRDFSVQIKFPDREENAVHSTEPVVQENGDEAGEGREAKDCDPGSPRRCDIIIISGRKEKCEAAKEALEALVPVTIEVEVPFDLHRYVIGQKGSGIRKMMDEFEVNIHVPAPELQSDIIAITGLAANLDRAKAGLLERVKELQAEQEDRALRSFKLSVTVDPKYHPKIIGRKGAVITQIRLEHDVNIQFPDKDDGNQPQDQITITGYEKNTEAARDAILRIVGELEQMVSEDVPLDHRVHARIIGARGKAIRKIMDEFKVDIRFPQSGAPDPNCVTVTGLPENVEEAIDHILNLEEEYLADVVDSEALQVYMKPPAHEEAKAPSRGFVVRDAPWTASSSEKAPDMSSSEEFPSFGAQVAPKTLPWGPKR
# UniProt P11142: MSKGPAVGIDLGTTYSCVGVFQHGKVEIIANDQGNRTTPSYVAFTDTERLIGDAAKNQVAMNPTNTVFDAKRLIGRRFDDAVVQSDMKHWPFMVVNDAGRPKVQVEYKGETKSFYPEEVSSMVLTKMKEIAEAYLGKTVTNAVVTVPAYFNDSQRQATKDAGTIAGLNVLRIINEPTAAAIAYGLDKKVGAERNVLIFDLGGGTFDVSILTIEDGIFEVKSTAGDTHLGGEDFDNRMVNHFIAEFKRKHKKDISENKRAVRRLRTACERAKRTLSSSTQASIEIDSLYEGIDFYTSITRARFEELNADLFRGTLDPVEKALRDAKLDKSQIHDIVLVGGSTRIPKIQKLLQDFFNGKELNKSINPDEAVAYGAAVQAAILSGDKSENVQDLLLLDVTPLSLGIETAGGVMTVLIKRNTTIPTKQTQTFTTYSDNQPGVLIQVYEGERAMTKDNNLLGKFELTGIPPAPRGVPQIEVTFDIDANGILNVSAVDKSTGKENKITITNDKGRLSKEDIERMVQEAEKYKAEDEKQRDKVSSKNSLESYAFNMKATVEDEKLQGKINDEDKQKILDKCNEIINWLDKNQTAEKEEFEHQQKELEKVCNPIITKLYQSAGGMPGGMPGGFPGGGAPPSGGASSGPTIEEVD
# UniProt P0DMV8: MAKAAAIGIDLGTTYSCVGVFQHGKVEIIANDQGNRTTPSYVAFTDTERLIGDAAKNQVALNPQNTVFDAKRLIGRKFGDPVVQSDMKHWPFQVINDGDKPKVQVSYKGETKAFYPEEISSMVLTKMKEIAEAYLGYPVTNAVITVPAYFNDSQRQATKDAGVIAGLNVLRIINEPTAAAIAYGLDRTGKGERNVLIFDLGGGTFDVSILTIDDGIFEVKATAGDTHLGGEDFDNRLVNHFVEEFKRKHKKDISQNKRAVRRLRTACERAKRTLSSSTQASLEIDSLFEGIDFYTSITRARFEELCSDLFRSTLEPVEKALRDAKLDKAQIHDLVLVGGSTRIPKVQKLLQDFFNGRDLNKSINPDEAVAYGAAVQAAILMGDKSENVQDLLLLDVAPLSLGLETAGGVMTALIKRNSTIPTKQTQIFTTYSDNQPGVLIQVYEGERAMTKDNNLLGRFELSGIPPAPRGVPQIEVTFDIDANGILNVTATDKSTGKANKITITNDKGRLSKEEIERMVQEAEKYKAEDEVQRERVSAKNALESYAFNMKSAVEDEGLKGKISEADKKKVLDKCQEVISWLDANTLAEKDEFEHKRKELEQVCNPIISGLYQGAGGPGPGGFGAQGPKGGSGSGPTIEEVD
# UniProt P50990: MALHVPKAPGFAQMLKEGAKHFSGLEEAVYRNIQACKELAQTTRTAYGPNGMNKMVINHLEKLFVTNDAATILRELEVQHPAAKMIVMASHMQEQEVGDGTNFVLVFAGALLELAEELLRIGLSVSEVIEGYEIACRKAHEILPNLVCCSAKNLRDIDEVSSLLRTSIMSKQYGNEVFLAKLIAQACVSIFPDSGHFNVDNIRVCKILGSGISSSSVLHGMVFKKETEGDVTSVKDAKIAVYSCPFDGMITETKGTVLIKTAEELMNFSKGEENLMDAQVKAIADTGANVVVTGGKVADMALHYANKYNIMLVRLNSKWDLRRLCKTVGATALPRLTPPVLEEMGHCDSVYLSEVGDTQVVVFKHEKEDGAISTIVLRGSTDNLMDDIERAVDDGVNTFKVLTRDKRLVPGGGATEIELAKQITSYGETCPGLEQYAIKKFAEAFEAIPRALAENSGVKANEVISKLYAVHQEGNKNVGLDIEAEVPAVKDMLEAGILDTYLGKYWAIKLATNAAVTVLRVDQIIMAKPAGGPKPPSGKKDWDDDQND
# UniProt Q04637: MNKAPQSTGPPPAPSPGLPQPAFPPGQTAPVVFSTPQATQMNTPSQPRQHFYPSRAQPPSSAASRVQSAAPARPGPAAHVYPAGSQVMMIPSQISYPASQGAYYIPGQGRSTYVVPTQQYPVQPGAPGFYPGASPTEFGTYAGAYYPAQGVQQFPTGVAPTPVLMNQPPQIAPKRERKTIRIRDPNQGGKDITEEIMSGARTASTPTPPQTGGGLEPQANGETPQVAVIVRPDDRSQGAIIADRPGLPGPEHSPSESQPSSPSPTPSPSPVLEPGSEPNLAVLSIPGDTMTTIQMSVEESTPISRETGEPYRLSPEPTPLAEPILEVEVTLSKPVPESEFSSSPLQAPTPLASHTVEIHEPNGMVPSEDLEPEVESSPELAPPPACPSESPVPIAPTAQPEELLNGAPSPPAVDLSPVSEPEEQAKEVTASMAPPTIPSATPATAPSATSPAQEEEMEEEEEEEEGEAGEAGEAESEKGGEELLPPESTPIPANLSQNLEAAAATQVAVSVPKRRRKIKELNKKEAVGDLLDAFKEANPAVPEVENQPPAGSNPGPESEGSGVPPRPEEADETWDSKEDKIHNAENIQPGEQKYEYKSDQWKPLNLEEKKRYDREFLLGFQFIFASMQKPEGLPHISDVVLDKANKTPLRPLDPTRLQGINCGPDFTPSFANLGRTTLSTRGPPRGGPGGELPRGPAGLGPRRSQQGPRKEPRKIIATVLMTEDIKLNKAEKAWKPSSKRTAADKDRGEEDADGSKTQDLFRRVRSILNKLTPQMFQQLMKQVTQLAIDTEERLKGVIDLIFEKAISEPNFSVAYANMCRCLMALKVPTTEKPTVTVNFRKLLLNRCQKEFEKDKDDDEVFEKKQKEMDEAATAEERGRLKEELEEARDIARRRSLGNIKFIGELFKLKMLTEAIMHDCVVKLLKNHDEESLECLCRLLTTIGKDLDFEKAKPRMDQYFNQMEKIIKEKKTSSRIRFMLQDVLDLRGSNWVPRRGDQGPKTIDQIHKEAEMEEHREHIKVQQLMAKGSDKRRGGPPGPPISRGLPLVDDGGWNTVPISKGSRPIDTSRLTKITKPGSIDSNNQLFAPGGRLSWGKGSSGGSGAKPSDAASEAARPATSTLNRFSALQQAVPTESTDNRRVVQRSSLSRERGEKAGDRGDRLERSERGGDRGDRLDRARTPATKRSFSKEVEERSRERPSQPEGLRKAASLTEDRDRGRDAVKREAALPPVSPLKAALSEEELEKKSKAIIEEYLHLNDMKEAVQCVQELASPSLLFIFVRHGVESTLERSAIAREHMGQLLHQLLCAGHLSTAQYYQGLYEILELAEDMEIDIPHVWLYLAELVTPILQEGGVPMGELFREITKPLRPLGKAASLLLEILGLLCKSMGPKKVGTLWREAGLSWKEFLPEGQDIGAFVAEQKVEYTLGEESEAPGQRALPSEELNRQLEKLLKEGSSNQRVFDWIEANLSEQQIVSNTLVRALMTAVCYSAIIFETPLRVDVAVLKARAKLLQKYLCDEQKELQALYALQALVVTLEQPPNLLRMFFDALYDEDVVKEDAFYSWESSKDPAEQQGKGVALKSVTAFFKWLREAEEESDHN
# UniProt O60573: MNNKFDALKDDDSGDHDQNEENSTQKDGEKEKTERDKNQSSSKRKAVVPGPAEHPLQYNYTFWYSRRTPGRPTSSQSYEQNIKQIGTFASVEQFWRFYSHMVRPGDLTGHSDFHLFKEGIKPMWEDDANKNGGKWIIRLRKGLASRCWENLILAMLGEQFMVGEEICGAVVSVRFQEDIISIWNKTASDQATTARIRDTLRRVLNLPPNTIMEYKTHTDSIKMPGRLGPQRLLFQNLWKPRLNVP
# UniProt P55010: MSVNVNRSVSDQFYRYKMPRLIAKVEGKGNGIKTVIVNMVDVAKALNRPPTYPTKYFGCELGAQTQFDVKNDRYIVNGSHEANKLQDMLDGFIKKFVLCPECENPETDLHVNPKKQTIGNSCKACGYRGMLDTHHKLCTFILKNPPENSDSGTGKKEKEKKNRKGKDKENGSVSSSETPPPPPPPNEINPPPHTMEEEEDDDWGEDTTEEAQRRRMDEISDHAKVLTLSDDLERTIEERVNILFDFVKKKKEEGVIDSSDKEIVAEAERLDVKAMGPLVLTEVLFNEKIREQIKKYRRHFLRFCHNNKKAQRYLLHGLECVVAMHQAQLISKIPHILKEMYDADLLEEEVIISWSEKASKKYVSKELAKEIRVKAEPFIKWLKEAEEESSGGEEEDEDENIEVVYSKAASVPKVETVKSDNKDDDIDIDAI
# Biological target: BirA*-FLAG-HDLBP (human) (UniProt Q00341)
# Test: proximity labelling; BioID in stable HEK293 cells expressing BirA*-FLAG-HDLBP; with or without 1 µg/ml doxycycline for 24 h, 250 µM biotin for 3.5 h; RIPA lysis, benzonase, streptavidin sepharose, LC-MS/MS; enrichment LFQ(Dox) vs. LFQ(noDox)
row,binding,Molecule
1,binds,HSPA8 (from UniProt P11142 1-646)
2,binds,HSPA1A (from UniProt P0DMV8 1-641)

# Second part, the molecule before the results:
row,Molecule,binding
1,CCT8 (from UniProt P50990 1-548),binds
2,EIF4G1 (from UniProt Q04637 1-1599),binds
3,EIF4E2 (from UniProt O60573 1-245),binds
4,EIF5 (from UniProt P55010 1-431),binds
5,"SRP68 (protein, UniProt Q9UHB9 1-627) MAAEKQVPGGGGGGGSGGGGGSGGGGSGGGRGAGGEENKENERPSAGSKANKEFGDSLSLEILQIIKESQQQHGLRHGDFQRYRGYCSRRQRRLRKTLNFKMGNRHKFTGKKVTEELLTDNRYLLLVLMDAERAWSYAMQLKQEANTEPRKRFHLLSRLRKAVKHAEELERLCESNRVDAKTKLEAQAYTAYLSGMLRFEHQEWKAAIEAFNKCKTIYEKLASAFTEEQAVLYNQRVEEISPNIRYCAYNIGDQSAINELMQMRLRSGGTEGLLAEKLEALITQTRAKQAATMSEVEWRGRTVPVKIDKVRIFLLGLADNEAAIVQAESEETKERLFESMLSECRDAIQVVREELKPDQKQRDYILEGEPGKVSNLQYLHSYLTYIKLSTAIKRNENMAKGLQRALLQQQPEDDSKRSPRPQDLIRLYDIILQNLVELLQLPGLEEDKAFQKEIGLKTLVFKAYRCFFIAQSYVLVKKWSEALVLYDRVLKYANEVNSDAGAFKNSLKDLPDVQELITQVRSEKCSLQAAAILDANDAHQTETSSSQVKDNKPLVERFETFCLDPSLVTKQANLVHFPPGFQPIPCKPLFFDLALNHVAFPPLEDKLEQKTKSGLTGYIKGIFGFRS",binds
